In paper PMC11173052, “The Development of Robust Antibodies to Sarcospan, a Dystrophin- and Integrin-Associated Protein, for Basic and Translational Research” (International Journal of Molecular Sciences, 2024) one finds binding data, which are given here for two molecules.

Experiment [1] has as its target human sarcospan (hSSPN) (human) (UniProt Q14714). The experiment is described as follows: oligomer bands on immunoblot of immunoprecipitated protein (reducing SDS-PAGE); quadriceps lysates (50 mM Tris, 150 mM NaCl, 1% NP-40, pH 7.4) of hSSPN-TG, mSSPN-TG, WT and SSPN-null mice immunoprecipitated with anti-SSPN monoclonal antibodies on protein A/G PLUS-agarose; eluates resolved by SDS-PAGE under reducing conditions and blotted with E2 or 10B8.

For experiment [2], the target named is mouse sarcospan (mSSPN) (mouse) (UniProt Q62147). The description is as above.

These are yes or no findings as the source states them, for the method shown. Some results given as binding are weak or reduced against the parent protein; the word gives no strength.

B1: human sarcospan (hSSPN) (natural protein, UniProt Q14714 1-243, looked up)
chain: MGKNKQPRGQQRQGGPPAADAAGPDDMEPKKGTGAPKECGEEEPRTCCGCRFPLLLALLQLALGIAVTVVGFLMASISSSLLVRDTPFWAGIIVCLVAYLGLFMLCVSYQVDERTCIQFSMKLLYFLLSALGLTVCVLAVAFAAHHYSQLTQFTCETTLDSCQCKLPSSEPLSRTFVYRDVTDCTSVTGTFKLFLLIQMILNLVCGLVCLLACFVMWKHRYQVFYVGVRICSLTASEGPQQKI
notes: sarcospan, human, GenBank AF016028; hSSPN-TG muscle also holds endogenous mouse SSPN; also called human SSPN; source: transgenic overexpression in mouse skeletal muscle (hSSPN-TG, Ln3), quadriceps muscle lysate
With B1, the binding entry in experiment [1] is “binds”.

B2: mouse sarcospan (mSSPN) (natural protein, UniProt Q62147 1-216, looked up)
chain: MGRKPSPRAQELPEEEARTCCGCRFPLLLALLQLALGIAVTVLGFLMASISPSLLVRDTPFWAGSIVCVVAYLGLFMLCVSYQVDERTCVQFSMKVFYFLLSALGLMVCMLAVAFAAHHYSLLAQFTCETSLDSCQCKLPSSEPLSRAFVYRDVTDCTSVTGTFKLFLIIQMVLNLVCGLVCLLACFVMWKHRYQVFYVGVGLRSLMASDGQLPKA
notes: sarcospan, mouse, GenBank U02487; 25-kDa protein with four transmembrane domains; seen as monomer and as a dimer band on reducing SDS-PAGE of immunoprecipitates; also called mouse SSPN; murine SSPN; source: endogenous (wild type) or transgenic overexpression (mSSPN-TG, Ln28), mouse quadriceps muscle lysate
With B2, the binding entry in experiment [2] is recorded as “binds”.
